The supplement of paper PMC12067093, “Discovery and optimisation of a covalent ligand for TRIM25 and its application to targeted protein ubiquitination” (Chemical Science, 2025)
Some of the results follow.

Compound: CC1Cc2ccccc2N1C(=O)C1CCCN(C1)C(=O)CCl (mixture of isomers) [TRIM25 ligand 11 (diastereomer mixture)]
Test: probe-labelled cysteine peptide fold change vs DMSO (competition) (log2 fold change); higher = less target engagement (more negative = stronger competition)
Conditions: THP-1, incubation time: 4 h
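Further: competitive chemoproteomic profiling in live THP-1 cells with an iodoacetamide desthiobiotin (IA-DTB) probe, comparing probe-labelled peptide intensities in compound-treated cells against DMSO-treated controls.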

Target | probe-labelled cysteine peptide fold change (10 µM) | probe-labelled cysteine peptide fold change (50 µM)
HNRNPA1L2_Q32P51_175_GHNCEVR (UniProt Q32P51) | 0.171 | 0.181
HPS4_Q9NQG7_63_CVSDISDSPPTLVR (UniProt Q9NQG7) | -0.0309 | 0.173
HNRNPA3_P51991_85+94_GFGFVTYSCVEEVDAAMCARPHK (UniProt P51991) | -0.263 | -0.209
HPRT1_P00492_206_DLNHVCVISETGK (UniProt P00492) | 0.0402 | 0.0203
HNRNPL_P14866_260+261_ASLNGADIYSGCCTLK (UniProt P14866) | 0.0282 | 0.195
HNRNPR_O43390_99_SAFLCGVMK (UniProt O43390) | 0.01 | -0.0266
HNRNPD_Q14103_226_GFCFITFK (UniProt Q14103) | -0.0603 | -0.0257
HPS5_Q9UPZ3_1085_AWSLLQECGLALELSEK (UniProt Q9UPZ3) | -0.037 | 0.0022
HSPBP1_Q9NZL4_269_GTLCSMGMVQQLVALVR (UniProt Q9NZL4) | 0.0217 | 0.156
HNRNPUL2_Q1KMD3_308_EGCTEVSLLR (UniProt Q1KMD3) | 0.0447 | 0.0554
HSP90AA1_P07900_374_VFIMDNCEELIPEYLNFIR (UniProt P07900) | 0.135 | 0.211
HSPBP1_Q9NZL4_341_CQLLQQHEEYQEELEFCEK (UniProt Q9NZL4) | 0.0296 | 0.188
HNRNPDL_O14979_277_RGFCFITYTDEEPVK (UniProt O14979) | -0.0535 | -0.136
HSD17B10_Q99714_91_VDVAVNCAGIAVASK (UniProt Q99714) | 0.0329 | -0.0714
HSDL2_Q6YN16_136_ACIPYLK (UniProt Q6YN16) | -0.0408 | -0.0632
HSPH1_Q92598_13_SVVGLDVGSQSCYIAVAR (UniProt Q92598) | 0.00267 | 0.124
HSPA4L_O95757_213_NVVFIDMGHSAYQVLVCAFNK (UniProt O95757) | 0.0444 | 0.134
HSPB11_Q9Y547_52_HPPENIIDGNPETFWTTTGMFPQEFIICFHK (UniProt Q9Y547) | 0.109 | 0.0788
HNRNPAB_Q99729_224_KFHTVSGSKCEIK (UniProt Q99729) | -0.654 | -0.0882
HMOX2_P30519_265_CPFYAAEQDK (UniProt P30519) | 0.185 | 0.0949
HMGCL_P35914_307_LLEAGNFICQALNR (UniProt P35914) | 0.011 | 0.16

Target | probe-labelled cysteine peptide fold change (10 µM) | probe-labelled cysteine peptide fold change (50 µM)
HSD17B11_Q8NBQ5_217_TTCLCPNFVNTGFIK (UniProt Q8NBQ5) | 0.106 | 0.0234
HOXA11_P31270_82_GNLAHCYSAEELVHR (UniProt P31270) | 0.0655 | -0.134
HSPA5_P11021_41_EDVGTVVGIDLGTTYSCVGVFK (UniProt P11021) | 0.162 | 0.307
HSPD1_P10809_237_CEFQDAYVLLSEKK (UniProt P10809) | -0.374 | -0.338
HNRNPU_Q00839_648_GNFTLPEVAECFDEITYVELQK (UniProt Q00839) | -0.000604 | -0.189
HNRNPLL_Q8WVV9_357_VFNLFCLYGNIEK (UniProt Q8WVV9) | -0.0521 | 0.0536
HSD17B7_P56937_158_ELEPLLCHSDNPSQLIWTSSR (UniProt P56937) | 0.127 | 0.183
HNRNPA0_Q13151_49_CFGFVTYSNVEEADAAMAASPHAVDGNTVELK (UniProt Q13151) | 0.247 | -0.127
HSPG2_P98160_4389_AQAGANTRPCPS (UniProt P98160) | 0.478 | 0.124
HPCAL1_P37235_38_DCPTGHLTVDEFK (UniProt P37235) | 0.137 | 0.0406
HSPH1_Q92598_290_LMSSNSTDLPLNIECFMNDK (UniProt Q92598) | 0.00551 | -0.101
HSP90AA1_P07900_420_CLELFTELAEDK (UniProt P07900) | 0.0827 | -0.0288
HNRNPL_P14866_521_IQHPSNVLHFFNAPLEVTEENFFEICDELGVK (UniProt P14866) | 0.0969 | -0.196
HPS6_Q86YV9_141_LVWCEER (UniProt Q86YV9) | -0.0343 | -0.0196
HPS4_Q9NQG7_183_ILQTCQR (UniProt Q9NQG7) | -0.0554 | 0.296
HNRNPUL1_Q9BUJ2_532_KAIVICPTDEDLK (UniProt Q9BUJ2) | -0.551 | -0.521
HMGCS1_Q01581_268_DFTLNDFGFMIFHSPYCK (UniProt Q01581) | 0.0999 | -0.0576
HNRNPK_P61978_185_LFQECCPHSTDR (UniProt P61978) | 0.133 | 0.0489
HMGB3_O15347_23_MSAYAFFVQTCR (UniProt O15347) | -0.208 | -0.392
HSPA2_P54652_191_KGCAGGEK (UniProt P54652) | -0.0518 | -0.0114
HNRNPA3_P51991_64_WGTLTDCVVMRDPQTK (UniProt P51991) | -0.0934 | -0.159

Target | probe-labelled cysteine peptide fold change (10 µM) | probe-labelled cysteine peptide fold change (50 µM)
HMGCS1_Q01581_224_LSIQCYLSALDR (UniProt Q01581) | 0.0241 | 0.157
HSF1_Q00613_103_VVHIEQGGLVKPERDDTEFQHPCFLR (UniProt Q00613) | 0.0759 | 0.0283
HSPA4_P34932_245_FDEVLVNHFCEEFGK (UniProt P34932) | 0.196 | 0.153
HSP90B1_P14625_645_LTESPCALVASQYGWSGNMER (UniProt P14625) | -0.101 | -0.109
HNRNPL_P14866_581_LCFSTAQHAS (UniProt P14866) | 0.0448 | 0.0708
HSPA4L_O95757_421_TSFEDGSGECEVFCK (UniProt O95757) | -0.134 | -0.0508
HNRNPA3_P51991_196_YHTINGHNCEVK (UniProt P51991) | -0.00565 | -0.0527
HSPA5_P11021_41_KEDVGTVVGIDLGTTYSCVGVFK (UniProt P11021) | 0.169 | 0.0722
HNRNPU_Q00839_607_AVVVCPK (UniProt Q00839) | 0.17 | 0.108
HSD17B10_Q99714_58_KLGNNCVFAPADVTSEK (UniProt Q99714) | 0.11 | 0.0296
HNRNPH1_P31943_22_GLPWSCSADEVQR (UniProt P31943) | 0.0841 | -0.0383
HMMR_O75330_242_LLEYIEEISCASDQVEK (UniProt O75330) | -0.148 | 0.0284
HP1BP3_Q5SSJ5_359_TCSTTALKK (UniProt Q5SSJ5) | -0.214 | -0.218
HNRNPUL2_Q1KMD3_538_RNFILDQCNVYNSGQR (UniProt Q1KMD3) | 0.062 | 0.112
HPS6_Q86YV9_164_AEGPSGSPAAAFSHCVCVR (UniProt Q86YV9) | 0.392 | 0.0398
HOMEZ_Q8IX15_273_DKPPPIALIASSCK (UniProt Q8IX15) | -0.095 | 0.115
HNRNPA3_P51991_64_WGTLTDCVVMRDPQTKR (UniProt P51991) | -0.717 | -0.524
HSP90AB1_P08238_521_RGFEVVYMTEPIDEYCVQQLK (UniProt P08238) | -0.0447 | -0.173
HSD17B10_Q99714_58_LGNNCVFAPADVTSEK (UniProt Q99714) | -0.00178 | -0.227
HSPA4L_O95757_540_CHAEHTPEEEIDHTGAK (UniProt O95757) | -0.102 | -0.185
HTATSF1_O43719_186_GDGLCCYLK (UniProt O43719) | 0.204 | -0.0126

Target | probe-labelled cysteine peptide fold change (10 µM) | probe-labelled cysteine peptide fold change (50 µM)
HSD17B12_Q53GQ0_215_TFVDFFSQCLHEEYR (UniProt Q53GQ0) | 0.0883 | 0.0348
HNRNPR_O43390_292_GFCFLEYEDHK (UniProt O43390) | -0.0538 | -0.0259
HSD17B4_P51659_425_LKCEAVVADVLDK (UniProt P51659) | 0.0809 | 0.215
HPS1_Q92902_165_EQEQCFAVEALER (UniProt Q92902) | 0.259 | 0.344
HNRNPH1_P31943_290_YGDGGSTFQSTTGHCVHMR (UniProt P31943) | 0.0618 | -0.211
HNRNPLL_Q8WVV9_84_GLCESVVEADLVEALEK (UniProt Q8WVV9) | 0.0479 | -0.284
HSPA9_P38646_317_CELSSSVQTDINLPYLTMDSSGPK (UniProt P38646) | 0.00978 | -0.124
HNRNPF_P52597_22+34_GLPWSCSVEDVQNFLSDCTIHDGAAGVHFIYTR (UniProt P52597) | 0.143 | -0.0897
HNRNPK_P61978_184+185_LFQECCPHSTDRVVLIGGKPDR (UniProt P61978) | -0.407 | -0.363
HNRNPD_Q14103_226_GFCFITFKEEEPVK (UniProt Q14103) | -0.0444 | -0.0734
HNRNPR_O43390_214_GYAFITFCGK (UniProt O43390) | -0.176 | -0.0712
HNRNPU_Q00839_497_KDCEVVMMIGLPGAGK (UniProt Q00839) | -0.0106 | -0.106
HSPA8_P11142_17_GPAVGIDLGTTYSCVGVFQHGK (UniProt P11142) | -0.00147 | 0.0553
HNRNPU_Q00839_497_DCEVVMMIGLPGAGK (UniProt Q00839) | -0.0635 | -0.00894
HMGCS1_Q01581_406_ITASLCDLK (UniProt Q01581) | 0.00806 | -0.0782
HNRNPLL_Q8WVV9_474_LCNDHEVLTFIK (UniProt Q8WVV9) | 0.0754 | -0.118
HNRNPU_Q00839_607_KAVVVCPKDEDYK (UniProt Q00839) | -0.459 | -0.291
HTATSF1_O43719_295_NMFHPMDFEDDPLVLNEIREDLRVECSK (UniProt O43719) | -0.277 | -0.132
HSPBAP1_Q96EW2_293_MLVCALK (UniProt Q96EW2) | 0.232 | 0.109
